# Reference: PubChem BioAssay AID602313 (National Center for Advancing Translational Sciences (NCATS), 2012)
# About 760 (0.19%) of roughly 390,000 compounds were called active. Inconclusive means that the source gave no clear call. Such entries were picked first, then a sample of the others. Calls follow the shape of the dose curve; as a rule, active = well fitted inhibition curve with a large enough effect; inconclusive = small, poorly fitted or top-dose-only effect; inactive = flat fitted curve, though single readings scatter. Potencies beside an inconclusive call are fits to weak or partial responses and may not hold up.
# Experiment: qHTS for Inhibitors of Vif-A3F Interactions: qHTS; also: nearly all actives have a fitted effect of over 65% in size
# Conditions: HeLa A3F-eYFP + Vif (tagged APOBEC3F with the HIV-1 protein that degrades it), YFP fluorescence increase; series mostly up to 46.1 µM
# In short: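 Fluorescence increase (Ex 488/Em 500-530) after overnight compound treatment at 37 deg C flags inhibition of Vif-driven A3F-eYFP loss in stable HeLa A3F-eYFP/Vif cells seeded overnight beforehand.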
# Potency is read from the fitted curve at half-maximal effect.
row,Structure (SMILES),Potency
1,Cc1ccc(CNc2ccc(-c3nc(-c4ccco4)no3)cc2[N+](=O)[O-])cc1,"inconclusive: 6.31 µM [inhibitor, single point]"
2,O=C(CN(C(=O)c1csnn1)c1cccc(F)c1)NC1CCCC1,"inconclusive: 14.1 µM [inhibitor, partial curve, poor fit]"
3,CN(Cc1cccs1)S(=O)(=O)c1cccs1,"inconclusive: 1.26 µM [inhibitor, partial curve, poor fit]"
4,CC(C)(C)C(=O)C(Cl)C(=O)Nc1ccccc1 (stereo not drawn),inactive
5,CCN(CC)C(=O)Cn1c(C)c(/C=C/c2cc[n+](C)cc2)c2ccccc21,"inconclusive: 7.08 µM [inhibitor, partial curve, poor fit]"
6,O=C(Cc1ccccc1)Nn1c(O)c(/C=C2\C=Nc3ccccc32)sc1=S,"inconclusive: 20 µM [inhibitor, single point]"
7,CC(C)(C)c1cc(C(=O)NNc2cc(C(F)(F)F)ccc2Cl)n(Cc2ccccc2)n1,"inconclusive: 22.4 µM [inhibitor, single point]"
8,Cc1cccc2nc(CSc3ccc(Cl)cc3)cn12,"inconclusive: 35.5 µM [inhibitor, single point]"
9,O=C(/C=C/c1ccc(F)cc1)Nc1ccc2[nH]c(=O)[nH]c2c1,"inconclusive: 7.94 µM [inhibitor, full curve, poor fit]"
10,O=C(Cc1ccccc1)N1CCC(C(=O)N2CCN(c3ccc(F)cc3)CC2)CC1,"inconclusive: 35.5 µM [inhibitor, single point]"
11,Cc1c(O)ccc(C(=O)COc2ccc(F)cc2)c1O,inactive
12,Fc1ccc(Nc2nc(NCc3ccco3)c3ccccc3n2)cc1,inactive
13,COc1ccc(C2c3[nH]c4ccccc4c3CCN2C(=O)c2cn3ccccc3n2)c(F)c1 (stereo not drawn),"inconclusive: 5.62 µM [inhibitor, single point]"
14,CCOC(=O)Cn1c(=NC(=O)c2nc3ccccc3s2)sc2cc(S(N)(=O)=O)ccc21,"inconclusive: 7.08 µM [inhibitor, full curve, poor fit]"
15,N=C1/C(=C\c2coc3ccccc3c2=O)C(=O)N=C2SC(c3ccncc3)=NN12,active: 25.1 µM
16,C(=Cc1c[nH]c2ccccc12)c1nccc2ccccc12,active: 8.91 µM
17,COc1cccc(Nc2ncccc2C(=O)Nc2ccccc2)c1,inactive
18,CC1=CC(=O)C=C(C)C1=NOC(=O)c1cccc([N+](=O)[O-])c1,"inconclusive: 28.2 µM [inhibitor, single point]"
19,CN(C(=O)C(C)(C)C)[C@H]1C[C@H]2c3[nH]c4ccccc4c3CCN2C(=O)[C@H]1CO,inactive
20,CCN(CC)c1cc2c(cc1F)c(=O)c(S(=O)(=O)c1ccc(OC)cc1)cn2CC,inactive
21,O=C(O)c1ccc(C[n+]2c(-c3ccccc3)csc2Nc2ccccc2)cc1,inactive
22,CCOC(=O)C(C(=O)OCC)N(C#N)c1nc(C)cc(C)n1,inactive
23,C[C@@H]1COC(=O)[C@H](NC(=O)OCC2c3ccccc3-c3ccccc32)C/C=C\C[C@@H](CC(=O)N[C@H](CO)Cc2ccccc2)C(=O)N1,"inconclusive: 35.5 µM [inhibitor, single point]"

row,Structure (SMILES),Potency
1,Cc1ccc(NC(=S)NCc2ccc(F)cc2)cc1,"inconclusive: 35.5 µM [inhibitor, single point]"
2,CCOC(=O)N1CCN(c2c(F)cc3[nH]c(=S)[nH]c3c2Br)CC1,inactive
3,CCOc1cc(/C=C2\SC(N)=NC2=O)ccc1O,inactive
4,CCOC(=O)c1c(CN2CCN(Cc3ccccc3)CC2)n(C)c2cc(Br)c(OC)cc12,inactive
5,CCc1cc(C(=O)OC)c(NC(=O)CC2Nc3cc(C)c(C)cc3NC2=O)s1 (stereo not drawn),"inconclusive: 3.16 µM [inhibitor, full curve, poor fit]"
6,Cc1ccc(NC(=O)C(CC(=O)O)C2CCCO2)c(C)c1 (stereo not drawn),"inconclusive: 3.98 µM [inhibitor, single point]"
7,CCCCOc1ccc(C(=O)C(CN2CCOCC2)c2ccccc2)cc1 (stereo not drawn),inactive
8,CCCCn1c(N)c(N(CCOC)C(=O)C(C)Oc2ccc(Cl)cc2)c(=O)[nH]c1=O (stereo not drawn),"inconclusive: 35.5 µM [inhibitor, single point]"
9,CCCCc1cc(=O)oc2c(C)c(OCC(=O)NCCN3CCOCC3)ccc12,inactive
10,CCC(=O)NC(c1ccco1)c1cc(Cl)c2cccnc2c1O (stereo not drawn),"inconclusive: 3.16 µM [inhibitor, partial curve, poor fit]"
11,CC(=O)c1ccc(NC(=S)Nc2ccc3cn[nH]c3c2)cc1,inactive
12,CCOc1ccc(C(C)NC(=S)NC2CCCCC2)cc1OCC (stereo not drawn),"inconclusive: 0.316 µM [inhibitor, full curve, poor fit]"
13,O=C(NNC(=O)C(c1ccccc1)c1ccccc1)c1ccccn1,inactive
14,COc1ccc(N2C(=O)C(Cl)=C(Nc3c(C)n(C)n(-c4ccccc4)c3=O)C2=O)cc1,inactive
15,CCOc1cc(S(=O)(=O)n2cnc(C)c2)ccc1Cl,"inconclusive: 6.31 µM [inhibitor, single point]"
16,Cc1cc2cc(CNC(=O)c3cccs3)ccc2n1C,"inconclusive: 6.31 µM [inhibitor, single point]"
17,COC(CNC(=O)c1cn(C)c2ccc(S(=O)(=O)N3CCOCC3)cc2c1=O)OC,inactive
18,CCOC(=O)c1nnn2c3ccccc3c(=O)n(C)c12,"inconclusive: 20 µM [inhibitor, partial curve, poor fit]"
19,Cc1cccc(NC(=S)NCCc2ccc(F)cc2)c1C,"inconclusive: 22.4 µM [inhibitor, single point]"
20,S=C(NNc1cccc(Cl)c1)NC1CCCCC1,"inconclusive: 35.5 µM [inhibitor, single point]"
21,O=C(COC(=O)c1cccc(Br)c1)Nc1cccc2c1C(=O)c1ccccc1C2=O,"inconclusive: 10 µM [inhibitor, partial curve, poor fit]"
22,COc1ccc(CN=C2NC(=O)CC(C(=O)Nc3ccccc3C)S2)cc1 (stereo not drawn),"inconclusive: 35.5 µM [inhibitor, single point]"
23,O=C(CCC(=O)c1ccccc1)Nc1ccccc1,"inconclusive: 6.31 µM [inhibitor, single point]"

# Quoted from the entries so far for reference:
row,Structure (SMILES),Potency
5,CCc1cc(C(=O)OC)c(NC(=O)CC2Nc3cc(C)c(C)cc3NC2=O)s1 (stereo not drawn),"inconclusive: 3.16 µM [inhibitor, full curve, poor fit]"
6,Cc1ccc(NC(=O)C(CC(=O)O)C2CCCO2)c(C)c1 (stereo not drawn),"inconclusive: 3.98 µM [inhibitor, single point]"
7,CCCCOc1ccc(C(=O)C(CN2CCOCC2)c2ccccc2)cc1 (stereo not drawn),inactive
8,CCCCn1c(N)c(N(CCOC)C(=O)C(C)Oc2ccc(Cl)cc2)c(=O)[nH]c1=O (stereo not drawn),"inconclusive: 35.5 µM [inhibitor, single point]"
9,CCCCc1cc(=O)oc2c(C)c(OCC(=O)NCCN3CCOCC3)ccc12,inactive
10,CCC(=O)NC(c1ccco1)c1cc(Cl)c2cccnc2c1O (stereo not drawn),"inconclusive: 3.16 µM [inhibitor, partial curve, poor fit]"
11,CC(=O)c1ccc(NC(=S)Nc2ccc3cn[nH]c3c2)cc1,inactive
12,CCOc1ccc(C(C)NC(=S)NC2CCCCC2)cc1OCC (stereo not drawn),"inconclusive: 0.316 µM [inhibitor, full curve, poor fit]"
13,O=C(NNC(=O)C(c1ccccc1)c1ccccc1)c1ccccn1,inactive
14,COc1ccc(N2C(=O)C(Cl)=C(Nc3c(C)n(C)n(-c4ccccc4)c3=O)C2=O)cc1,inactive
15,CCOc1cc(S(=O)(=O)n2cnc(C)c2)ccc1Cl,"inconclusive: 6.31 µM [inhibitor, single point]"
16,Cc1cc2cc(CNC(=O)c3cccs3)ccc2n1C,"inconclusive: 6.31 µM [inhibitor, single point]"
17,COC(CNC(=O)c1cn(C)c2ccc(S(=O)(=O)N3CCOCC3)cc2c1=O)OC,inactive
18,CCOC(=O)c1nnn2c3ccccc3c(=O)n(C)c12,"inconclusive: 20 µM [inhibitor, partial curve, poor fit]"
19,Cc1cccc(NC(=S)NCCc2ccc(F)cc2)c1C,"inconclusive: 22.4 µM [inhibitor, single point]"
20,S=C(NNc1cccc(Cl)c1)NC1CCCCC1,"inconclusive: 35.5 µM [inhibitor, single point]"
21,O=C(COC(=O)c1cccc(Br)c1)Nc1cccc2c1C(=O)c1ccccc1C2=O,"inconclusive: 10 µM [inhibitor, partial curve, poor fit]"
22,COc1ccc(CN=C2NC(=O)CC(C(=O)Nc3ccccc3C)S2)cc1 (stereo not drawn),"inconclusive: 35.5 µM [inhibitor, single point]"

# Remaining list, next part:

row,Structure (SMILES),Potency
1,Cc1ccc2nc3c(cc(C(=O)NCC4CCCO4)c(=N)n3C(C)C)c(=O)n2c1 (stereo not drawn),inactive
2,COc1cccc(/C=C/c2[nH]c(=O)[nH]c(=O)c2[N+](=O)[O-])c1O,"inconclusive: 28.2 µM [inhibitor, single point]"
3,Nc1c(C(=O)NCc2ccc3c(c2)OCO3)nnn1Cc1cccc(F)c1,"inconclusive: 22.4 µM [inhibitor, single point]"
4,Cc1ccccc1Nc1c(-c2ccccn2)nc2c(C)cccn12,"inconclusive: 35.5 µM [inhibitor, single point]"
5,COc1ccccc1NC(=O)C1CCCN(C(=O)Nc2ccc(F)cc2)C1 (stereo not drawn),"inconclusive: 20 µM [inhibitor, partial curve, poor fit]"
6,CCCc1cc(-c2n[nH]c(=S)n2-c2cccc(C)c2)cs1,"inconclusive: 2.82 µM [inhibitor, partial curve, poor fit]"
7,COc1cc(CNCc2ccccc2)c(Br)cc1OC1CCCC1,"inconclusive: 14.1 µM [inhibitor, single point]"
8,COc1ccccc1N1CCN(C(C)C(=O)Nc2ccc(S(=O)(=O)N3CCOCC3)cc2)CC1 (stereo not drawn),"inconclusive: 35.5 µM [inhibitor, single point]"
9,Cc1ccc(S(=O)(=O)NNC(=S)NCCc2ccccc2)cc1,"inconclusive: 11.2 µM [inhibitor, single point]"
10,O=C(Nc1cccc(S(=O)(=O)NC2=NCCCCC2)c1)c1cc(-c2ccco2)nc2ccccc12,"inconclusive: 35.5 µM [inhibitor, single point]"
11,O=[N+]([O-])c1ccc(N/N=C\c2cccn2-c2ccccc2)nc1,"inconclusive: 20 µM [inhibitor, single point]"
12,CC1C/C(=N\NC(=S)NCc2ccccc2)CC(C)(C)C1 (stereo not drawn),inactive
13,CS(=O)(=O)Nc1cccc(C2=NN(S(=O)(=O)c3ccc(F)cc3)C(c3cccs3)C2)c1 (stereo not drawn),"inconclusive: 35.5 µM [inhibitor, single point]"
14,CC(=O)c1cnc2nc(SCc3ccccc3C)nn2c1C,inactive
15,COc1ccc(-n2c(O)c(/C=N/NS(=O)(=O)c3ccc(C)c([N+](=O)[O-])c3)c3ccccc3c2=O)cc1OC,active: 12.6 µM
16,N=c1n(CCN2CCCCC2)c2ccccc2n1CC(=O)c1ccc(Cl)c(Cl)c1,"inconclusive: 1 µM [inhibitor, full curve, poor fit]"
17,COC(=O)c1c(NC(=O)COC(=O)c2ccc(NC(=O)CC#N)cc2)sc2c1CCCCC2,"inconclusive: 25.1 µM [inhibitor, single point]"
18,CC(C)(C)C1CCC(=NNc2nc3ccccc3[nH]2)CC1 (stereo not drawn),"inconclusive: 3.98 µM [inhibitor, full curve]"
19,CC(C)CN(C(=O)COC(=O)C1=COCCO1)c1c(N)n(Cc2ccccc2)c(=O)[nH]c1=O,"inconclusive: 5.62 µM [inhibitor, single point]"
20,CCc1ccccc1NC(=O)Cn1c(=O)n(Cc2ccc3c(c2)OCO3)c(=O)c2ccc(C(=O)NC3CCCCC3)cc21,"inconclusive: 3.98 µM [inhibitor, single point]"
21,COc1ccc(-n2c(C)cc3cc(OC(C)=O)ccc32)cc1,"inconclusive: 25.1 µM [inhibitor, single point]"
22,Cc1ccnc(SCc2ccc(C(=O)O)cc2)n1,inactive
